In patent publication US12419848B2, “Treatment of hyperinflammatory syndrome” (priority 2020, dated 2025):

Tested on: allergic reaction to processionary caterpillar toxin

CCN(CC)CC(=O)Nc1c(C)cccc1C [lidocaine base, lidocaine]
itching skin rash (after 1 hour): improved dramatically | time until all respiratory symptoms had disappeared (sublingual 100 mg): 15 min | time until symptoms started to improve (sublingual 100 mg): ≤ 10 min
